According to PubChem BioAssay AID588590 (National Center for Advancing Translational Sciences (NCATS), 2011):
Several values for one entry are separate records, joined by “and”; a condition that tells them apart may be missing. Equal values may be shown once. The campaign covered roughly 390,000 compounds. About 4,000 (1%) were called active. This list was built around the results that the source calls inconclusive (neither active nor inactive); the mix of calls is not that of the screen. The call rests on the fitted dose curve; in most records, active means well fitted inhibition curve with a large enough effect; inconclusive means small, poorly fitted or top-dose-only effect, or another doubt; inactive means no such curve, though single readings can be large or run the other way. A potency beside an inconclusive call is a rough fit, not a confirmed value.
Potency means the concentration at half of the fitted maximal effect.

By UniProt entry, the sequences of proteins in these tests, tags left out. Where a name states a change or a piece, a line headed by the entry shows the natural chain unless it says otherwise.
UniProt Q9UNA4: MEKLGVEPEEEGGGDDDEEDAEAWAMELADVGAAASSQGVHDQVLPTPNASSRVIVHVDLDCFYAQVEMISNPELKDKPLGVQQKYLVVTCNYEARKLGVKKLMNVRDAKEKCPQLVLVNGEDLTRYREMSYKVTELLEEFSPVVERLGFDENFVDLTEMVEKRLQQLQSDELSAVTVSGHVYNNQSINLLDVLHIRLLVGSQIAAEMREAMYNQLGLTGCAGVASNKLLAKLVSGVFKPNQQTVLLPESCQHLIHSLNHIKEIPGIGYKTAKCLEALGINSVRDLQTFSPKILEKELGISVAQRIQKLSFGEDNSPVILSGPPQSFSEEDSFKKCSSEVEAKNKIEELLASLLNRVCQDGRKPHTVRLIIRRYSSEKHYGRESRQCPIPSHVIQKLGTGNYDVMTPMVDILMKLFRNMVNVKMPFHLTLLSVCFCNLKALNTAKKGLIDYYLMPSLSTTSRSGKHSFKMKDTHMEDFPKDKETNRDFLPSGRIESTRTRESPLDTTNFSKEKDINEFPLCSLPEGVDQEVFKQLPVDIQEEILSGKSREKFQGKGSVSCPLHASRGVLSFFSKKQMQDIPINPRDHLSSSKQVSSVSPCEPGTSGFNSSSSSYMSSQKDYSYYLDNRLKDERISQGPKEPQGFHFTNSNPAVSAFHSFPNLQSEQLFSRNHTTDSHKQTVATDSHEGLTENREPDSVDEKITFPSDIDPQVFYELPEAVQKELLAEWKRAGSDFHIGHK

What follows are molecules tested against DNA polymerase iota (Homo sapiens) (UniProt Q9UNA4) (assay: qHTS for Inhibitors of Polymerase Iota). Settings: Pol iota fluorescent replication assay, 10 min; series mostly up to 115 µM; activity, negative = inhibition: at the top concentration.
In short: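 Pol iota at 10 nM preincubated 15 min with compounds at room temperature; reaction started with fluorescent substrate, 50 nM final. Fluorescence read kinetically at 0 and 10 min; buffer-only wells as negative control.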
With `CCC(=O)N=c1sc2c(C)cc(C)cc2n1CC(=O)OC` the Potency was inconclusive: 10 µM [inhibitor, partial curve, poor fit].
With `CC1Cc2cc(/C(O)=C3/C(=O)C(=O)N(CCCn4ccnc4)C3c3ccco3)ccc2O1` (stereo unspecified) the Potency was inconclusive: 17.8 µM [inhibitor, partial curve, poor fit].
In the case of `COCCCN1C(=O)C(=O)/C(=C(/O)c2ccc(OC(C)C)c(C)c2)C1c1ccncc1` (stereo unspecified), the Potency is reported as inconclusive: 39.8 µM [inhibitor, single point].
`O=C(NCCN1CCN(c2ccccc2)CC1)C1(S(=O)(=O)c2ccc(Cl)cc2)CC1` was tested, and the “activity, negative = inhibition” value was inactive: 19.9%.
For `CC(=O)Cc1cc(O)c2ccccc2c1OC(=O)c1ccccc1`, the Potency was inconclusive: 35.5 µM [inhibitor, partial curve, poor fit].
`COC(=O)c1c(C)c(OC(=O)c2c(C)cc(O)c(C=O)c2O)cc(C)c1O` was tested, and the Potency was inconclusive: 89.1 µM [inhibitor, single point].
In the case of `COc1cccc(-c2nc(SCC(=O)Nc3nc(-c4ccccc4)c(C)s3)[nH]c(=O)c2C#N)c1`, the Potency is reported as inconclusive: 22.4 µM [inhibitor, single point].
`CCn1c(C(=O)Nc2c(C)cccc2C)cc2sc(Cl)cc21` was tested, and the Potency was inconclusive: 89.1 µM [inhibitor, single point].
For `COc1ccc(NC(=O)CN2CCC(C(N)=O)(N3CCCCC3)CC2)cc1`, the Potency was inconclusive: 89.1 µM [inhibitor, partial curve, poor fit].
With `Cc1ccc(CN2CCOCCS2(=O)=O)cc1` the “activity, negative = inhibition” value was inactive: 21%.
`CSCCC(NC(=O)c1cccc(S(=O)(=O)N2CCOCC2)c1)C(=O)Nc1cccc(C)c1` (stereo unspecified) was tested, and the Potency was inconclusive: 79.4 µM [inhibitor, partial curve, poor fit].
`COc1cccc(-c2noc(COc3ccc(C(C)(C)C)cc3)n2)c1` was tested, and the “activity, negative = inhibition” value was inactive: 25.6%.
With `C=CCn1c(SCC)nc2ccccc2c1=O` the “activity, negative = inhibition” value was inactive: 11%.
`COCCNC(=O)C1CC2Cn3c(nc4cc(C)c(C)cc43)C2N1C` (stereo unspecified) was tested, and the Potency was inconclusive: 39.8 µM [inhibitor, single point].
In the case of `CC(C)c1ccc(Nc2nc(Cl)nc(Cl)n2)cc1`, the Potency is reported as inconclusive: 17.8 µM [inhibitor, full curve].
For `COc1ccc(C2NC(=S)N3C(c4ccc(OC)cc4)NC(=S)N23)cc1` (stereo unspecified), the Potency was inconclusive: 39.8 µM [inhibitor, partial curve, poor fit].
`N=C1/C(=C\c2ccc(Br)o2)C(=O)N=C2SC(CC(=O)N3CCCCC3)=NN12` was tested, and the Potency was inconclusive: 12.6 µM [inhibitor, full curve, poor fit].
With `Cc1ccc(OCC(=O)NCCCNC(=O)c2ccncc2)cc1C` the “activity, negative = inhibition” value was inactive: 22.6%.
With `Cc1cnc(NC(=O)CCCc2nc3ccccc3s2)s1` the Potency was inconclusive: 89.1 µM [inhibitor, partial curve, poor fit].
With `CCCCCC/C(C)=C1/SC(=S)NC1=O` the Potency was inconclusive: 89.1 µM [inhibitor, partial curve, poor fit].
For `Cc1cc(NC(=O)CCS(=O)(=O)c2nc(-c3ccccc3)cc(C(F)(F)F)n2)no1`, the Potency was inconclusive: 39.8 µM [inhibitor, partial curve, poor fit].
For `Cc1noc(NS(=O)(=O)c2ccc(NC(=O)CCn3c(=O)oc4ccccc43)cc2)c1C`, the Potency was inconclusive: 2.51 µM [inhibitor, partial curve, poor fit].
With `CCC(=O)N1c2ccc(S(=O)(=O)CCC(=O)Nc3nccs3)cc2CC1C` (stereo unspecified) the Potency was inconclusive: 39.8 µM [inhibitor, single point].
With `COc1ccc(CN2C(=O)CS/C2=N/N=C/c2cccs2)cc1` the Potency was inconclusive: 79.4 µM [inhibitor, partial curve].
In the case of `COC(=O)c1ccccc1NC(=O)c1ccc(-c2nc(COc3ccccc3)c(C)o2)cc1`, the “activity, negative = inhibition” value is reported as inactive: 15.6%.
In the case of `O=C1C=CC(=O)C(CNc2ccc(C(=O)OCc3ccccc3)cc2)=C1`, the Potency is reported as inconclusive: 35.5 µM [inhibitor, partial curve, poor fit].
For `COc1ccccc1C(=O)NCC1(c2ccccc2)CCCC1`, the “activity, negative = inhibition” value was inactive: 11.5%.
With `Cc1noc(NS(=O)(=O)c2ccc(NC(=O)CCC3CCCCC3)cc2)c1C` the Potency was inconclusive: 39.8 µM [inhibitor, single point].
For `O=C1c2cccc(Cl)c2C(=O)c2c1cccc2N1CCCC1`, the Potency was inconclusive: 39.8 µM [inhibitor, single point].
With `O=C(NCc1ccccc1Cl)C1CCN(S(=O)(=O)c2cccc3nonc23)CC1` the Potency was inconclusive: 17.8 µM [inhibitor, partial curve, poor fit].
For `COc1cccc(N2[C@@H](CC(=O)O)c3ccc(/C=C/C(=O)O)cc3S2(=O)=O)c1`, the Potency was inconclusive: 25.1 µM [inhibitor, full curve, poor fit] and inconclusive: 56.2 µM [inhibitor, partial curve, poor fit].
With `O=C(OCc1cc(=O)n2nc(-c3cccs3)sc2n1)c1ccccc1` the Potency was active: 79.4 µM.
With `O=C(O)c1cccc(S(=O)(=O)Nc2ccc3[nH]c(=O)[nH]c3c2)c1` the Potency was inconclusive: 10 µM [inhibitor, partial curve, poor fit].
For `Fc1cccc(CCN2CCN=C2Nc2ccccc2)c1`, the Potency was inconclusive: 22.4 µM [inhibitor, partial curve, poor fit].
With `CNC(=O)c1ccc(-c2ccccc2)s1` the “activity, negative = inhibition” value was inactive: 9.94%.
For `CCOc1ccc(NC(=O)c2c(NCc3ccc(C)o3)sc3c2CCCCC3)cc1`, the Potency was inconclusive: 17.8 µM [inhibitor, full curve, poor fit].
With `O=C(O)Cc1sc(-c2cccnc2)nc1-c1ccc(Br)cc1` the Potency was inconclusive: 28.2 µM [inhibitor, single point].
In the case of `Cc1ccc(C)c(NC(=O)CN(C)C(=O)c2cccc(Oc3ccccc3)c2)c1`, the “activity, negative = inhibition” value is reported as inactive: 1.92%.
For `COc1ccc2[nH]c(C(=O)Nc3ccccc3Cl)cc2c1`, the Potency was inconclusive: 1.26 µM [inhibitor, full curve, poor fit].
In the case of `O=C(Cn1c(=O)n(-c2cccc(Cl)c2)c(=O)n1CC(=O)N1CCCCC1)N1CCCCC1`, the “activity, negative = inhibition” value is reported as inactive: 6.14%.
`CCOC(=O)c1c(C)c(-c2ccccc2)n(CC(=O)Nc2ccc(OCC)cc2)c1C` was tested, and the “activity, negative = inhibition” value was inactive: 34.3%.
